# Measured values as given in PubChem BioAssay AID1487 (National Center for Advancing Translational Sciences (NCATS), 2009).
# The other results are listed elsewhere or left out. These are further read-outs of the screen, such as a control signal, another cell line or another target. No call is given for them. The list favours compounds with an active or inconclusive main result. Words in brackets tell the shape of the fitted curve; partial curves, single points and poor fits give uncertain potencies.
# Assay: qHTS Assay for Modulators of Lamin A Splicing
# Settings: HeLa LMNA splicing GFP/RFP minigene ratio, 48 h
# In short: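 S3 HeLa stable clones carrying a lamin A-EGFP splicing minigene plus DsRed2 were seeded at 600 cells/well in Opti-MEM with 2% FBS, pin-dosed and incubated 48 h at 37°C. Acumen cytometry (488 nm) gave the GFP/RFP total-intensity ratio.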
# [1] = measured here: RFP viability control channel
# [2] = measured here: GFP splicing reporter channel
structure (smiles),measurement,setting,value
COc1ccc(/C=C2\C(=O)N(Cc3ccc(F)cc3)CC(=O)N2Cc2ccccc2)cc1,AC50,[1],"35.5 µM [rising, single point]"
O=C(COC(=O)CCC(=O)c1cccs1)NCc1ccccc1,AC50,[2],"0.0891 µM [falling, full curve, poor fit]"
O=C(NCc1cccnc1)/C(=C/c1ccc(-c2cccc(Cl)c2)o1)S(=O)(=O)c1ccccc1,AC50,[2],"3.98 µM [falling, full curve]"
same,AC50,[1],"3.98 µM [falling, full curve]"
Cc1cccc(OCc2nnc(SCC(=O)N3c4ccccc4CC3C)n2C)c1C (configuration not stated),AC50,[1],"12.6 µM [rising, partial curve, poor fit]"
CCN(CC)C(=O)CSc1nnc(COc2ccc(OC)cc2)n1N,AC50,[2],"0.891 µM [falling, full curve, poor fit]"
same,AC50,[1],"0.891 µM [falling, full curve, poor fit]"
CCOC(=O)CN1C(=O)N[C@@H](c2ccc(Br)cc2)C(C(C)=O)=C1C,AC50,[1],"11.2 µM [rising, single point]"
C=CCn1c(SCc2c(C)noc2C)nc2cc(C(=O)O)ccc2c1=O,AC50,[1],"31.6 µM [rising, single point]"
COC(=O)c1ccccc1NC(=O)N1c2ccccc2CC1C (configuration not stated),AC50,[2],"1.58 µM [rising, partial curve, poor fit]"
same,AC50,[1],"12.6 µM [rising, partial curve]"
Cc1ccc(NC(=O)c2cc(C)n(-c3cccc(C)c3)c2C)cc1,AC50,[2],"10 µM [rising, partial curve]"
same,AC50,[1],"12.6 µM [rising, partial curve]"
Cc1c(C(=O)Nc2ccccc2F)sc2ncnc(N(C)C3CCCCC3)c12,AC50,[2],"12.6 µM [falling, partial curve]"
same,AC50,[1],"4.47 µM [falling, partial curve, poor fit]"
CCn1c(SCC(=O)c2[nH]c(C)c(C(C)=O)c2C)nnc1-c1ccccc1,AC50,[2],"3.55 µM [rising, single point]"
same,AC50,[1],"7.08 µM [rising, partial curve]"
Cc1nn(-c2ccccc2)nc1CNC(=O)C(C)Cc1ccccc1 (configuration not stated),AC50,[1],"0.891 µM [rising, full curve]"
O=c1cnc2cnc(Nc3ccccc3)nc2n1CCc1ccccc1,AC50,[2],"35.5 µM [falling, single point]"
same,AC50,[1],"35.5 µM [falling, single point]"
CCCC12CN3CC(CCC)(CN(C1)C3c1ccccc1)C2=O (configuration not stated),AC50,[2],"0.0224 µM [falling, full curve, poor fit]"
CCOC(=O)c1cc(S(=O)(=O)N2CCN(c3ccc(C(C)=O)cc3)CC2)[nH]n1,AC50,[1],"22.4 µM [rising, single point]"

# Some of the entries above in a different format.
structure (smiles)	measurement	setting	value
O=c1cnc2cnc(Nc3ccccc3)nc2n1CCc1ccccc1	AC50	[2]	35.5 µM [falling, single point]
same	AC50	[1]	35.5 µM [falling, single point]
